We go through 37 compounds from PubChem BioAssay.

Some of the results follow. These are further read-outs of the screen, such as a control signal, another cell line or another target. No call is given for them. Most of these compounds were active or inconclusive in the main read-out, so they are no random draw.

A word on the viability: it is a read-out of living cells in per cent, often relative to untreated cells.

The test is described as follows: reducers of endogenous Her2 protein level, primary screen, SKBR3 breast tumor cells, AlphaScreen, ATP viability (AID 461).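 Further: percent of carrier control wells set as 100% viability.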 Conditions: 18-24 h, measured here: SKBR3 viability, ATP luminescence, at 10 µM. Background: In Alpha technology, singlet oxygen from a donor bead excites a nearby acceptor bead.
Consider `CC(=O)Nc1nc(C)c(-c2csc(Nc3ccc(O)cc3)n2)s1`, for which the viability is 114%.
Consider `c1ccc2c(NC3CCCC3)nnc(NC3CCCC3)c2c1`, for which the viability came out at 60%.
Regarding `O=C(Nc1cccc(NC(=O)c2ccco2)c1)c1ccc2c(c1)OCO2`, the viability was determined as 106%.
As for `COc1cc(NC2c3ccccc3C(=O)N2c2ccc(C)cn2)cc(OC)c1OC` (configuration not stated), the viability was determined as 90.5%.
The result for `COCc1cc(C)nc(Nc2ccc(C)cc2C)c1C#N` reads 70%; that for `Cc1onc(-c2ccccc2)c1C(=O)Nc1sc2c(c1C(N)=O)CCC2`, 88.5%; that for `COc1ccc(-c2nnnn2C)cc1S(=O)(=O)NCc1ccccc1`, 93.5%.
Take `CCN(CC)c1ccc2c(c1)CCCN2`: the viability was 86.5%.
In the case of `CCOC(=O)N1CCC(n2c(=S)[nH]c3cc(OC)c(OC)cc3c2=O)CC1`, the viability was 114%.
Regarding `C(=N/n1c2ccccc2c2ccccc21)/c1ccco1`, the viability is 81%.
Turning to `COc1cc(C(=O)N2CCN(c3cc(Cl)ccc3Cl)CC2)cc(OC)c1OC`, the viability is 77.5%.
As to `CNCCC=C1c2ccccc2CCc2ccccc21`, the viability worked out at 23%.
With `CCCCCCCCNC(C)C(O)c1ccc(SC(C)C)cc1` (configuration not stated), the viability amounted to 41%.
Regarding `CC(C)N=c1cc2n(-c3ccc(Cl)cc3)c3ccccc3nc-2cc1Nc1ccc(Cl)cc1`, the viability turned out to be 102%.
Turning to `CCOc1ccc(-c2nc(C#N)c(NCc3ccc4c(c3)OCO4)o2)cc1`, the viability was 68%.
`COC(=O)c1ccccc1NC(=O)Cn1c(-c2nonc2N)nc2ccccc21`: the viability worked out at 70.5%.
The result for `COC(=O)c1[nH]c2c(c1C)C(=O)CC(c1cc(OC)ccc1OC)C2` (configuration not stated) reads 98.5%; that for `Cn1c(NC(=O)c2cccc(Cn3cc(Cl)cn3)c2)nc2ccccc21`, 83%; that for `COC(=O)c1nc2n(n1)C(c1ccc(OC)c(OC)c1)C(C(=O)OC1CCCCC1)=C(C)N2` (configuration not stated), 67%.
On to `CNCCCC1c2ccccc2C=Cc2ccccc21`, for which the viability was found to be 82%.
For `CCN(CC)CCCNc1oc(-c2cccc(Cl)c2)nc1C#N`, the viability turned out to be 113%.
In the case of `[O-][n+]1onc2c1CCc1nnc(-c3ccccc3)cc1-2`, the viability was found to be 93.5%.
Take `Cc1cccc(NC(=O)c2ccc3ccccc3n2)n1`: the viability turned out to be 91%.
As to `CCCCCCCCCCCCCCCC(O)C(N)CO` (configuration not stated), the viability was 60%.
With `Cc1ccc(-c2cc(C(F)F)n3ncc(C(=O)N4CCN(c5ccccn5)CC4)c3n2)cc1`, the viability came out at 99.5%.
Consider `COc1ccc(CCNc2oc(COc3ccc(F)cc3)nc2C#N)cc1`, for which the viability amounted to 164%.
The result for `CCOC(=O)Cc1cc(=O)n2[nH]c(C)c(-c3ccc(OC)cc3)c2n1` reads 103%.
For `CCOC(=O)C1=C(CS(=O)(=O)c2ccc(F)c(C)c2)NC(=O)NC1c1ccc(O)c(O)c1` (configuration not stated), the viability turned out to be 112%.
Turning to `C/C(=N\O)C(=O)C(CN1CCCCC1)CN1CCCCC1`, the viability is 116%.
Regarding `Cc1ccc(-c2nnc3c4ccccc4c(C)nn23)cc1NC(=O)c1ccco1`, the viability came out at 81.5%.
In the case of `CCOc1ccc(-c2nc(N)ncc2-c2ccccc2)c(O)c1`, the viability was 136%.
The result for `CCOc1ccccc1CN(Cc1ccco1)S(=O)(=O)c1ccc(-n2cnnn2)c(OC)c1` reads 82.5%.
As for `Cc1ccccc1-n1nnc2c(=O)oc3ccccc3c21`, the viability was 99.5%.
With `c1ccc(-c2cc(-c3nc(-c4ccccn4)no3)c3ccccc3n2)cc1`, the viability stood at 139%.
In the case of `Cn1c(=O)c2c(nc(CN3CCc4ccccc4C3)n2Cc2cccc(Cl)c2)n(C)c1=O`, the viability is 95%.
Consider `Cc1nn(-c2nc3ccccc3[nH]2)c(N)c1-c1ccccc1`, for which the viability turned out to be 97%.
Take `COc1ccc(CCN2CCC(Nc3nc4ccccc4n3Cc3ccc(F)cc3)CC2)cc1`: the viability was found to be 56.5%.
